Marks after values point to notes of the source that are not given here.
What was measured:
[1] = system: triceps brachii beef muscles; test: Water holding capacity, pre-rigor injection of whole muscle; conditions: 200 mM, calcium chloride 300 mM
[2] = system: triceps brachii beef muscles; test: R-value, pre-rigor injection of whole muscle; conditions: 200 mM, calcium chloride 300 mM
[3] = system: triceps brachii beef muscles; test: Sarcomere length, pre-rigor injection of whole muscle; conditions: 72 hours after injection; 200 mM, calcium chloride 300 mM
[4] = system: triceps brachii beef muscles; test: Objective color, pre-rigor injection of whole muscle; conditions: for L*value, 0 h / a*value, 0 h / b*value, 0 h: 0 h (before injection); for L*value, 0 h / L*value, 24 h / L*value, 72 h: lightness; for a*value, 0 h / a*value, 24 h: redness; for b*value, 0 h / b*value, 24 h / b*value, 72 h: yellowness; for L*value, 24 h / a*value, 24 h / b*value, 24 h / L*value, 72 h / b*value, 72 h: 200 mM, calcium chloride 300 mM
[5] = system: triceps brachii beef muscles; test: Oxidation-reduction potential, pre-rigor injection of whole muscle; conditions: 200 mM, calcium chloride 300 mM
[6] = system: triceps brachii beef muscles; test: NAD and NADH content, pre-rigor injection of whole muscle; conditions: for NAD, 0 h / NADH, 0 h: 0 h (before injection); for NAD, 24 h / NADH, 24 h / NAD, 72 h / NADH, 72 h: 200 mM, calcium chloride 300 mM
[7] = system: supraspinatus beef muscles; test: R-value, pre-rigor injection of whole muscle; conditions: for R-value, 0 h: 0 h (before injection), ratio of hypoxantine to nucleotides; for R-value, 24 h / R-value, 72 h: 200 mM, calcium chloride 300 mM
[8] = system: supraspinatus beef muscles; test: Objective color, pre-rigor injection of whole muscle; conditions: for L*value, 0 h / a*value, 0 h / b*value, 0 h: 0 h (before injection); for L*value, 0 h / L*value, 24 h / L*value, 72 h: lightness; for a*value, 0 h / a*value, 24 h / a*value, 72 h: redness; for b*value, 0 h / b*value, 24 h / b*value, 72 h: yellowness; for L*value, 24 h / a*value, 24 h / b*value, 24 h / L*value, 72 h / a*value, 72 h / b*value, 72 h: 200 mM, calcium chloride 300 mM
[9] = system: supraspinatus beef muscles; test: Oxidation-reduction potential, pre-rigor injection of whole muscle; conditions: for Redox potential, 0 h: 0 h (before injection); for Redox potential, 24 h / Redox potential, 72 h: 200 mM, calcium chloride 300 mM
[10] = system: supraspinatus beef muscles; test: NAD and NADH content, pre-rigor injection of whole muscle; conditions: for NAD, 0 h / NADH, 0 h: 0 h (before injection); for NAD, 24 h / NADH, 24 h / NAD, 72 h / NADH, 72 h: 200 mM, calcium chloride 300 mM
[11] = system: semimembranosus beef muscles; test: Water holding capacity, pre-rigor injection of whole muscle; conditions: 200 mM, calcium chloride 300 mM
[12] = system: semimembranosus beef muscles; test: R-value, pre-rigor injection of whole muscle; conditions: for R-value, 0 h: 0 h (before injection), ratio of hypoxantine to nucleotides; for R-value, 72 h: 200 mM, calcium chloride 300 mM
[13] = system: semimembranosus beef muscles; test: Sarcomere length, pre-rigor injection of whole muscle; conditions: 72 hours post-mortem, 200 mM, calcium chloride 300 mM
[14] = system: semimembranosus beef muscles; test: Oxidation-reduction potential, pre-rigor injection of whole muscle; conditions: for Redox potential, 0 h: 0 h (before injection); for Redox potential, 24 h / Redox potential, 72 h: 200 mM, calcium chloride 300 mM
[15] = system: semimembranosus beef muscles; test: NAD and NADH content, pre-rigor injection of whole muscle; conditions: for NAD, 0 h / NADH, Oh: 0 h (before injection); for NAD, 24 h / NADH, 24 h / NAD, 72 h / NADH, 72 h: 200 mM, calcium chloride 300 mM

O=C([O-])CC(O)(CC(=O)[O-])C(=O)[O-].[Na+].[Na+].[Na+] [Sodium citrate, sodium citrate]
WHC, 72 h (Water Holding Capacity) [1]: 37.76%
R-value, 24 h [2]: 1.30
R-value, 72 h [2]: 1.36
Sarcomere length [3]: 1.62^b μm
L*value, 0 h [4]: 22.22
a*value, 0 h [4]: 14.38
b*value, 0 h [4]: 2.89
L*value, 24 h [4]: 28.52
a*value, 24 h [4]: 24.54
b*value, 24 h [4]: 6.56
L*value, 72 h [4]: 29.56
b*value, 72 h [4]: 5.73
Redox potential, 24 h [5]: 125.05 mV
Redox potential, 72 h [5]: 133.65 mV
NAD, 0 h [6]: .421 μmol/g tissue
NADH, 0 h [6]: .093 μmol/g tissue
NAD, 24 h [6]: .269^a μmol/g tissue
NADH, 24 h [6]: .067 μmol/g tissue
NAD, 72 h [6]: .146^a μmol/g tissue
NADH, 72 h [6]: .051 μmol/g tissue
R-value, 0 h [7]: .84
R-value, 24 h [7]: 1.27
R-value, 72 h [7]: 1.38
L*value, 0 h [8]: 21.99
a*value, 0 h [8]: 17.50
b*value, 0 h [8]: 3.68
L*value, 24 h [8]: 29.88
a*value, 24 h [8]: 22.83^ab
b*value, 24 h [8]: 6.29^ab
L*value, 72 h [8]: 30.51
a*value, 72 h [8]: 20.87
b*value, 72 h [8]: 5.59
Redox potential, 0 h [9]: 124.37 mV
Redox potential, 24 h [9]: 118.17 mV
Redox potential, 72 h [9]: 125.05 mV
NAD, 0 h [10]: .387 μmol/g tissue
NADH, 0 h [10]: .073 μmol/g tissue
NAD, 24 h [10]: .148^ab μmol/g tissue
NADH, 24 h [10]: .056 μmol/g tissue
NAD, 72 h [10]: .098^ab μmol/g tissue
NADH, 72 h [10]: .035^a μmol/g tissue
WHC, 72 h (Water Holding Capacity) [11]: 41.99%
R-value, 0 h [12]: .83
R-value, 72 h [12]: 1.38
Sarcomere length [13]: 1.72^ab μm
Redox potential, 0 h [14]: 124.55 mV
Redox potential, 24 h [14]: 128.85^a mV
Redox potential, 72 h [14]: 132.67^bc mV
NAD, 0 h [15]: .568 μmol/g tissue
NADH, Oh [15]: .121 μmol/g tissue
NAD, 24 h [15]: .306^b μmol/g tissue
NADH, 24 h [15]: .072^a μmol/g tissue
NAD, 72 h [15]: .173^ab μmol/g tissue
NADH, 72 h [15]: .066^b μmol/g tissue

[F-].[Na+] [Sodium fluoride, sodium fluoride, reference compound]
WHC, 72 h (Water Holding Capacity) [1]: 35.27%
R-value, 24 h [2]: 1.28
R-value, 72 h [2]: 1.38
Sarcomere length [3]: 1.41^b μm
L*value, 0 h [4]: 20.76
a*value, 0 h [4]: 16.23
b*value, 0 h [4]: 3.17
L*value, 24 h [4]: 29.58
a*value, 24 h [4]: 22.40
b*value, 24 h [4]: 6.05
L*value, 72 h [4]: 28.26
b*value, 72 h [4]: 6.39
Redox potential, 24 h [5]: 131.35 mV
Redox potential, 72 h [5]: 139.78 mV
NAD, 0 h [6]: .450 μmol/g tissue
NADH, 0 h [6]: .078 μmol/g tissue
NAD, 24 h [6]: .261^a μmol/g tissue
NADH, 24 h [6]: .060 μmol/g tissue
NAD, 72 h [6]: .113^a μmol/g tissue
NADH, 72 h [6]: .055 μmol/g tissue
R-value, 0 h [7]: .79
R-value, 24 h [7]: 1.28
R-value, 72 h [7]: 1.37
L*value, 0 h [8]: 22.55
a*value, 0 h [8]: 15.23
b*value, 0 h [8]: 2.81
L*value, 24 h [8]: 28.71
a*value, 24 h [8]: 20.78^a
b*value, 24 h [8]: 5.32^a
L*value, 72 h [8]: 28.21
a*value, 72 h [8]: 16.66
b*value, 72 h [8]: 5.41
Redox potential, 0 h [9]: 124.17 mV
Redox potential, 24 h [9]: 131.45 mV
Redox potential, 72 h [9]: 136.70 mV
NAD, 0 h [10]: .384 μmol/g tissue
NADH, 0 h [10]: .078 μmol/g tissue
NAD, 24 h [10]: .216^a μmol/g tissue
NADH, 24 h [10]: .056 μmol/g tissue
NAD, 72 h [10]: .078^a μmol/g tissue
NADH, 72 h [10]: .045^b μmol/g tissue
WHC, 72 h (Water Holding Capacity) [11]: 38.22%
R-value, 0 h [12]: .85
R-value, 72 h [12]: 1.42
Sarcomere length [13]: 1.53^bc μm
Sarcomere length ([13]; listed as NaF): 1.53 μm
Redox potential, 0 h [14]: 125.95 mV
Redox potential, 24 h [14]: 130.07^a mV
Redox potential, 72 h [14]: 140.70^ab mV
NAD, 0 h [15]: .551 μmol/g tissue
NADH, Oh [15]: .130 μmol/g tissue
NAD, 24 h [15]: .281^b μmol/g tissue
NADH, 24 h [15]: .098^b μmol/g tissue
NAD, 72 h [15]: .096^c μmol/g tissue
NADH, 72 h [15]: .061^ab μmol/g tissue
